# Results from cells or extracts need not show a direct contact. For part of these data: Negatives hold for the conditions tested.
# Amino acid sequences for entries named in this document (tags omitted). A change or cut given only in a name is not applied to a line headed by its entry.
# UniProt P52947: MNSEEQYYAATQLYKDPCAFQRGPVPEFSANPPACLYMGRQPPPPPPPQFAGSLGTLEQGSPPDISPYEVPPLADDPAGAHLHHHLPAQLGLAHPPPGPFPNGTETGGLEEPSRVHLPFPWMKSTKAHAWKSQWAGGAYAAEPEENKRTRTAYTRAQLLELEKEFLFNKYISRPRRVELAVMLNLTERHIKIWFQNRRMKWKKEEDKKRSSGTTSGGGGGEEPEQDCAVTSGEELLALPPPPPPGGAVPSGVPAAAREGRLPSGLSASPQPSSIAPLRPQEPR
# Legend:
# [1] = target: ITF-1 endogenous in Tu-6 nuclear extract (complexes C1 and C2) (rat) (UniProt P52947); assay: competition with a labelled probe; settings: protein in an extract
# [2] = target: ITF-1 endogenous in Tu-6 nuclear extract (complexes C1 and C2) (rat) (UniProt P52947); assay: EMSA; settings: Tu-6 extract; C1 and C2 abolished by anti-ITF-1 antiserum; protein in an extract
sequence,measurement,setting,value
GATCTCAGGCCGGCCGCATGCAC (double strand) [mutant TSE II],binding result,"[1]; mutant TSE II did not displace C1 and C2, variant of somatostatin TSE II",no binding
GATCTCAGTAATAATCATGCAG (double strand) [somatostatin TSE II],binding result,[2],binds
TTGCGAGGCTAATGGTGCG (double strand) [somatostatin TSE I],binding result,[1]; wild-type TSE I displaced C1 and C2 from TSE II probe,binds
